# Laboratory results from US20150322033A1, “ANTIBACTERIAL AGENT” (priority 2012, published 2015).
# At least one structure is not confirmed: it was looked up by name or label, or the drawing left a doubt.
# What was measured:
# [1] = biological target: T1, GyrA(wt) + GyrB(wt) (Staphylococcus aureus, UniProt P20831); assay: DNA cleavage assay with GyrA(wt) and GyrB(wt); type: biochemical; details: FIG. 1 and 2
# T1 construct: made in house; host or cells: E. coli BL21(DE3)
# Source text: The gene sequence encoding the wild-type GyrA of Staphylococcus aureus (henceforth also referred to as “GyrA(wt)”) shown as SEQ ID NO: 1 was cloned into the plasmid pMAL-c2 (produced by New England Biolabs) (the resultant is henceforth also referred to as “pMAL-c2-gyrA”).
# The gene sequence encoding the wild-type GyrB of Staphylococcus aureus (henceforth also referred to as “GyrB(wt)”) shown as SEQ ID NO: 2 was cloned into the plasmid pMAL-c2 (produced by New England Biolabs) (the resultant is henceforth also referred to as “pMAL-c2-gyrB”).
# (§1) E. coliBL21(DE3) (produced by Invitrogen) was transformed with pMAL-c2-gyrA mentioned above, with pMAL-c2-gyrB mentioned above, or with pMAL-c2-SAGAmut84 containing a mutant gyrA encoding the amino acid sequence of GyrA(wt) in which serine residue at the 84th position from the amino terminus is substituted with a leucine residue (see, Hiramatsu K., Igarashi M., Morimoto Y, Baba T., Umekita M., Akamatsu Y., Int. J. Antimicrob. Agents, 2012 June; 39(6), 478-85). To the culture medium of the resulting transformed Escherichia coli, 1 mM […] (produced by Wako Pure Chemical Industries) was added to induce expression of maltose-binding GyrA(wt), maltose-binding GyrB(wt), or maltose-binding mutant GyrA(S84L), and the bacterium was cultured overnight at 25° C. […]
# [2] = biological target: T2, GyrA(S84L) + GyrB(wt) (Staphylococcus aureus, UniProt P20831, S84L); assay: DNA cleavage assay with mutant GyrA(S84L) and GyrB(wt); type: biochemical; details: FIG. 3 and 4
# T2 construct: made in house; host or cells: E. coli BL21(DE3)
# Source text: as §1
# IC50 value of levofloxacin or apigenin was also calculated from the visualized images shown in FIGS. 3 and 4 in the same manner as that used for the calculation using the results shown in FIGS. 1 and 2. […]
smiles,measurement,setting,value
"C[C@H]1COc2c(N3CCN(C)CC3)c(F)cc3c(=O)c(C(=O)O)cn1c23 [Levofloxacin, levofloxacin, reference compound]",inhibitory activity against the wild-type DNA gyrase,[1],concentration-dependent inhibitory activity
same,inhibitory activity against the mutant DNA gyrase,[2],no inhibitory activity
